About 22,000 (6.9%) of roughly 320,000 compounds were called active. This list was built around the results that the source calls inconclusive (neither active nor inactive); the mix of calls is not that of the screen. Calls follow the shape of the dose curve; as a rule, active = well fitted inhibition curve with a large enough effect; inconclusive = small, poorly fitted or top-dose-only effect, or another doubt; inactive = no such curve, though single readings can be large or run the other way. Where the call is inconclusive, the potency comes from a doubtful curve fit.
Experiment: Primary qHTS for delayed death inhibitors of the malarial parasite plastid, 96 hour incubation
Conditions: P. falciparum luciferase reporter growth; series mostly up to 28.7 µM
Procedure, shortened: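 Cell-based qHTS: luciferase-tagged P. falciparum in erythrocytes (2% hematocrit, 0.05% parasitemia final) incubated with compounds for 96 hours, 37 C, 5% CO2; luciferase detection reagent then added and luminescence measured.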
Potency is read from the fitted curve at half-maximal effect.

Row | Compound | Potency
1 | Cc1cc(OCC(=O)NCCc2c[nH]c3ccccc23)c2c(C)c(C)c(=O)oc2c1 | inconclusive: 13.1 µM [inhibitor, single point]
2 | COc1ccc(C(=O)N2CCc3cc4c(cc3C2C)OCCCO4)cc1 (configuration not stated) | active: 13.1 µM
3 | Cc1ccc2nc(NCc3ccccc3)c(C=NCc3cccnc3)c(=O)n2c1 | inactive
4 | Cc1cccc(NC(=O)CSc2nnc(CNC(=O)c3ccc(S(=O)(=O)N(C)C)cc3)n2-c2ccccc2)c1 | inconclusive: 9.28 µM [inhibitor, partial curve]
5 | CCSc1nc2ccccc2n1C(=O)c1ccc(S(=O)(=O)N2CCCCCC2)cc1 | inconclusive: 2.62 µM [inhibitor, full curve]
6 | COc1ccccc1C(=O)NCCNc1nc2cc(C)cc(C)c2cc1C#N | inconclusive: 18.5 µM [inhibitor, single point]
7 | COc1ccc(C(=O)Nc2cccc(C(=O)NCc3ccco3)c2)cc1 | inactive
8 | COc1cc2c3nnc(-c4ccc(F)cc4)c-3cn(Cc3ccccc3)c2cc1OC | active: 0.415 µM
9 | Cc1ncc(CN2CCCC(C(=O)Nc3ccc(-c4cccc(F)c4)cc3)C2)s1 (configuration not stated) | inconclusive: 20.8 µM [inhibitor, partial curve, poor fit]
10 | O=C(Nc1ncnc2sc3c(c12)CCCCC3)c1ccc(F)cc1 | inconclusive: 18.5 µM [inhibitor, single point]
11 | Fc1ccc(-c2csc(=S)[nH]2)cc1 | inactive
12 | COc1ccc(/C=C(/NC(=O)c2ccc(OC)c(OC)c2)C(=O)NCCc2c[nH]c3ccccc23)cc1 | inconclusive: 14.7 µM [inhibitor, single point]
13 | CNc1c([N+](=O)[O-])cnn1-c1ccc(C)cc1 | inconclusive: 0.0738 µM [inhibitor, full curve, poor fit]
14 | CCCCC#Cc1cncc(C(=O)NN)c1 | inactive
15 | CCOc1ccccc1N(C)C(=O)Cn1ncc2c([nH]c3ccc(C)cc32)c1=O | inconclusive: 13.1 µM [inhibitor, single point]
16 | CN(C)CCn1c(=O)n(-c2cccc(Cl)c2)c(=O)c2c3c(sc21)CCCCC3 | inconclusive: 4.15 µM [inhibitor, partial curve]
17 | O=S(=O)(c1ccc(F)cc1)N1CCN(c2ccc(F)cc2)CC1 | inconclusive: 18.5 µM [inhibitor, single point]
18 | O=C(Nc1ccccc1N1CCCC1)c1ccc2ccccc2c1 | inconclusive: 18.5 µM [inhibitor, single point]
19 | O=C(Nc1ccccc1N1CCCC1)c1cccc(Cl)c1Cl | inactive
20 | COC(=O)CC1COc2ccccc2N1C(=O)c1cc(OC)c(OC)c(OC)c1 (configuration not stated) | inconclusive: 13.1 µM [inhibitor, partial curve, poor fit]
21 | Cc1nn(-c2ccccc2)c(C)c1/C=N/NC(=O)c1cc(-c2ccc(Cl)s2)[nH]n1 | inactive
22 | O=S(=O)(Nc1ccc(Cc2ccncc2)cc1)c1ccc(Cl)c(Cl)c1 | inconclusive: 1.65 µM [inhibitor, full curve, poor fit]
23 | CCO[C@@H]1OC(C(=O)Nc2ccccc2)=C[C@H](c2ccc3c(c2)OCO3)[C@H]1CCCO | inconclusive: 10.4 µM [inhibitor, single point]

2 neighbouring compounds from above:
Row | Compound | Potency
9 | Cc1ncc(CN2CCCC(C(=O)Nc3ccc(-c4cccc(F)c4)cc3)C2)s1 (configuration not stated) | inconclusive: 20.8 µM [inhibitor, partial curve, poor fit]
10 | O=C(Nc1ncnc2sc3c(c12)CCCCC3)c1ccc(F)cc1 | inconclusive: 18.5 µM [inhibitor, single point]

Later entries

Row | Compound | Potency
24 | C/C=C\C=C\C(=O)Nc1cccc(C2=NOC3(C2)C[C@@H](C(N)=O)N(C(=O)C(c2ccccc2)c2ccccc2)C3)c1 (some centres not stated) | inconclusive: 5.22 µM [inhibitor, partial curve]
25 | Cc1cc(C(=O)OCC(=O)NC(C)c2ccc(F)cc2)c(C)o1 (configuration not stated) | inconclusive: 7.38 µM [inhibitor, partial curve]
26 | CC1Cc2ccccc2N1C(=O)CCn1cccn1 (configuration not stated) | inactive
27 | O=C(CNc1cc(S(=O)(=O)N2CCOCC2)ccc1NCC1CCCO1)Nc1cccc(F)c1 (configuration not stated) | inactive
28 | COc1ccc(C2=CSC3=NCCN23)cc1Cl | inconclusive: 18.5 µM [inhibitor, single point]
29 | O=C(COc1coc(CN2CCCc3ccccc32)cc1=O)Nc1ccccc1 | inconclusive: 8.28 µM [inhibitor, partial curve]
30 | COC(=O)c1ccccc1NC(=O)c1cc2nc(C3CC3)cc(C(F)(F)F)n2n1 | inconclusive: 18.5 µM [inhibitor, single point]
31 | C[C@]12CCC3C(CC[C@H]4CC(O)CC[C@]34C)C1CC/C2=N/O (some centres not stated) | inconclusive: 13.1 µM [inhibitor, single point]
32 | CC(=O)c1c(C)[nH]c(C(=O)OC(C)C(=O)Nc2ccc(C)c(S(=O)(=O)N3CCOCC3)c2)c1C (configuration not stated) | active: 5.22 µM
33 | COCC(C)n1c(SCC(=O)NC(=O)Nc2ccc3c(c2)OCCO3)nc2ccccc2c1=O (configuration not stated) | inconclusive: 11.7 µM [inhibitor, single point]
34 | O=C(c1cc2ccccc2oc1=O)N1CCSC1c1ccco1 (configuration not stated) | inconclusive: 10.4 µM [inhibitor, single point]
35 | C=CCn1c(O)c(N=Nc2ccccc2C)c2ccccc21 | inactive
36 | CC(NC(=S)NC1CCCCC1)C(c1cccs1)N1CCOCC1 (configuration not stated) | active: 8.28 µM
37 | CCCCn1c(N)c(N(CCC(C)C)C(=O)C2CCCC2)c(=O)[nH]c1=O | inconclusive: 9.28 µM [inhibitor, partial curve]
38 | CC(C)N1CCC(N2CCN(C3CCCCC3)CC2CCO)CC1 (configuration not stated) | inconclusive: 2.33 µM [inhibitor, full curve, poor fit]
39 | CS(=O)(=O)Nc1ccccc1C(=O)N1CCCC1 | inconclusive: 14.7 µM [inhibitor, partial curve, poor fit]
40 | Cc1cccc(NC(=O)Cn2cnc3ccccc3c2=O)c1C | inactive
41 | CCOc1ccccc1NC(=O)CCNS(=O)(=O)c1cccc2nonc12 | inconclusive: 5.86 µM [inhibitor, single point]
42 | CCOC(=O)C1CCN(C(=O)CN2C(=O)c3cccnc3Oc3ccc(C)cc32)CC1 | inconclusive: 18.5 µM [inhibitor, single point]
43 | CC(OC(=O)Cc1ccc(Cl)cc1)C(=O)NC1CCCCC1C (configuration not stated) | inactive
44 | O=C(Nc1ccccc1)NC1CCS(=O)(=O)C1 (configuration not stated) | active: 9.28 µM
45 | CCC(C)(C)NC(=O)CN(C(=O)c1snc(C(N)=O)c1N)c1ccc2c(c1)OCCO2 | inactive
46 | Cc1ccc(-n2c(-c3ccccc3)cc(=O)nc2C)cc1 | inconclusive: 5.22 µM [inhibitor, partial curve]

Row | Compound | Potency
47 | CSc1nc(C)cc(OCC(=O)N2CCOCC2)n1 | inconclusive: 13.1 µM [inhibitor, partial curve, poor fit]
48 | c1ccc(-c2nn3c(C4CCCCC4)nnc3s2)cc1 | inconclusive: 11.7 µM [inhibitor, partial curve, poor fit]
49 | O=C(COC(=O)c1ccc(O)cc1O)NC1CCCCCC1 | inconclusive: 18.5 µM [inhibitor, single point]
50 | O=C(c1ccc(F)cc1)N1CCN=C1c1ccccc1 | inconclusive: 18.5 µM [inhibitor, single point]
51 | COc1cccc(C(C(=O)NC2CCCC2)N(C(=O)c2csnn2)C2CC2)c1 (configuration not stated) | inactive
52 | CC(C)OC(=O)/C(=C/c1ccc2c(c1)c1ccccc1n2C)NC(=O)c1ccccc1 | inconclusive: 9.28 µM [inhibitor, partial curve]
53 | Cc1ccccc1C1C(C#N)=C2N=C(N)c3ccccc3N2C2=C1C(=O)CCC2 (configuration not stated) | inconclusive: 11.7 µM [inhibitor, single point]
54 | O=C(COC(=O)/C=C/c1cccc(F)c1)Nc1ccccc1-c1ccccc1 | inconclusive: 18.5 µM [inhibitor, single point]
55 | Cc1nn(CCCC(=O)NCCCN2CCN(C)CC2)c(=O)c2c1sc1ccccc12 | inactive
56 | CCc1nn(CC(=O)NCCc2ccc(S(N)(=O)=O)cc2)c(=O)c2cc3sccc3n12 | inconclusive: 16.5 µM [inhibitor, single point]
57 | CCOC(=O)CC(=O)CSc1nc(-c2ccc3c(c2)OCO3)cc(C(F)(F)F)c1C#N | inconclusive: 0.828 µM [inhibitor, full curve, poor fit]
58 | O=c1c2sc3nc(N4CCOCC4)c4c(c3c2ncn1CCc1ccccc1)CCCC4 | inconclusive: 0.0657 µM [inhibitor, full curve, poor fit]
59 | CCCCNC(=O)c1cn(CC(C)C)c(=O)c2c1c1ccccc1n2C | inactive
60 | Cc1ccc(C)c(NS(=O)(=O)c2ccc3oc(=O)ccc3c2)c1 | inactive
61 | CC(=O)O[C@@]12CO[C@@H]1C[C@H](OC1OCC(O)C(O)C1O)[C@@]1(C)C(=O)[C@H](O)C3=C(C)[C@@H](OC(=O)[C@H](O)[C@@H](NC(=O)c4ccccc4)c4ccccc4)C[C@@](O)([C@@H](OC(=O)c4ccccc4)C12)C3(C)C (some centres not stated) | active: 0.037 µM
62 | O=C(CN1CCC(NC(=O)C2CC2)CC1)Nc1ccccc1[N+](=O)[O-] | active: 0.738 µM
63 | O=C(CCc1ccc(S(=O)(=O)N2CCOCC2)cc1)N/N=C/c1ccc(F)cc1F | inconclusive: 5.86 µM [inhibitor, partial curve, poor fit]
64 | CCOC(=O)c1cnc2c(c(C)nn2CC)c1NC1CC1 | inconclusive: 10.4 µM [inhibitor, single point]
65 | COc1ccc(C(=O)C2CCCN(Cc3cnc(C)s3)C2)c(OC)c1 (configuration not stated) | inconclusive: 1.04 µM [inhibitor, partial curve, poor fit]
66 | CCOC(=O)c1[nH]c2cc3c(cc2c1NC(=O)CN1CC(C)CC(C)C1)OCO3 (configuration not stated) | active: 5.86 µM
67 | COCc1cc(=O)n2[nH]cc(-c3ccccc3)c2n1 | inactive
